Reference: PMC5840266
These are yes or no findings as the source states them, for the method shown. Binding seen in cells or lysates may run through a third protein. Here binding means that the protein was enriched with, or labelled near, the bait; the list need not be complete. For some assays here: No binding means not detected with the bait. Blank lines part the entries; values can stand above or below the molecule they belong to.

The chains behind the UniProt entries cited, without tags or fusion partners.
UniProt Q9P0J7: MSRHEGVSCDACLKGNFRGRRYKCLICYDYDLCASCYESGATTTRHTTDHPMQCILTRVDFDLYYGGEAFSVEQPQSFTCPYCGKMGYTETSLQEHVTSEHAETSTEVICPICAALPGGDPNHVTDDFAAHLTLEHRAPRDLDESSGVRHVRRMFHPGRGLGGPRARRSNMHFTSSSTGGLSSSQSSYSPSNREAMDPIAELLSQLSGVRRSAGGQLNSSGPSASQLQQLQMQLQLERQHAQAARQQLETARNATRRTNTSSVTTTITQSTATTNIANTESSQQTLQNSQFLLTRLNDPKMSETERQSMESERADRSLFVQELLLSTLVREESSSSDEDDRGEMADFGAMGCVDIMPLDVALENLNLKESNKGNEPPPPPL
UniProt Q9ULT8: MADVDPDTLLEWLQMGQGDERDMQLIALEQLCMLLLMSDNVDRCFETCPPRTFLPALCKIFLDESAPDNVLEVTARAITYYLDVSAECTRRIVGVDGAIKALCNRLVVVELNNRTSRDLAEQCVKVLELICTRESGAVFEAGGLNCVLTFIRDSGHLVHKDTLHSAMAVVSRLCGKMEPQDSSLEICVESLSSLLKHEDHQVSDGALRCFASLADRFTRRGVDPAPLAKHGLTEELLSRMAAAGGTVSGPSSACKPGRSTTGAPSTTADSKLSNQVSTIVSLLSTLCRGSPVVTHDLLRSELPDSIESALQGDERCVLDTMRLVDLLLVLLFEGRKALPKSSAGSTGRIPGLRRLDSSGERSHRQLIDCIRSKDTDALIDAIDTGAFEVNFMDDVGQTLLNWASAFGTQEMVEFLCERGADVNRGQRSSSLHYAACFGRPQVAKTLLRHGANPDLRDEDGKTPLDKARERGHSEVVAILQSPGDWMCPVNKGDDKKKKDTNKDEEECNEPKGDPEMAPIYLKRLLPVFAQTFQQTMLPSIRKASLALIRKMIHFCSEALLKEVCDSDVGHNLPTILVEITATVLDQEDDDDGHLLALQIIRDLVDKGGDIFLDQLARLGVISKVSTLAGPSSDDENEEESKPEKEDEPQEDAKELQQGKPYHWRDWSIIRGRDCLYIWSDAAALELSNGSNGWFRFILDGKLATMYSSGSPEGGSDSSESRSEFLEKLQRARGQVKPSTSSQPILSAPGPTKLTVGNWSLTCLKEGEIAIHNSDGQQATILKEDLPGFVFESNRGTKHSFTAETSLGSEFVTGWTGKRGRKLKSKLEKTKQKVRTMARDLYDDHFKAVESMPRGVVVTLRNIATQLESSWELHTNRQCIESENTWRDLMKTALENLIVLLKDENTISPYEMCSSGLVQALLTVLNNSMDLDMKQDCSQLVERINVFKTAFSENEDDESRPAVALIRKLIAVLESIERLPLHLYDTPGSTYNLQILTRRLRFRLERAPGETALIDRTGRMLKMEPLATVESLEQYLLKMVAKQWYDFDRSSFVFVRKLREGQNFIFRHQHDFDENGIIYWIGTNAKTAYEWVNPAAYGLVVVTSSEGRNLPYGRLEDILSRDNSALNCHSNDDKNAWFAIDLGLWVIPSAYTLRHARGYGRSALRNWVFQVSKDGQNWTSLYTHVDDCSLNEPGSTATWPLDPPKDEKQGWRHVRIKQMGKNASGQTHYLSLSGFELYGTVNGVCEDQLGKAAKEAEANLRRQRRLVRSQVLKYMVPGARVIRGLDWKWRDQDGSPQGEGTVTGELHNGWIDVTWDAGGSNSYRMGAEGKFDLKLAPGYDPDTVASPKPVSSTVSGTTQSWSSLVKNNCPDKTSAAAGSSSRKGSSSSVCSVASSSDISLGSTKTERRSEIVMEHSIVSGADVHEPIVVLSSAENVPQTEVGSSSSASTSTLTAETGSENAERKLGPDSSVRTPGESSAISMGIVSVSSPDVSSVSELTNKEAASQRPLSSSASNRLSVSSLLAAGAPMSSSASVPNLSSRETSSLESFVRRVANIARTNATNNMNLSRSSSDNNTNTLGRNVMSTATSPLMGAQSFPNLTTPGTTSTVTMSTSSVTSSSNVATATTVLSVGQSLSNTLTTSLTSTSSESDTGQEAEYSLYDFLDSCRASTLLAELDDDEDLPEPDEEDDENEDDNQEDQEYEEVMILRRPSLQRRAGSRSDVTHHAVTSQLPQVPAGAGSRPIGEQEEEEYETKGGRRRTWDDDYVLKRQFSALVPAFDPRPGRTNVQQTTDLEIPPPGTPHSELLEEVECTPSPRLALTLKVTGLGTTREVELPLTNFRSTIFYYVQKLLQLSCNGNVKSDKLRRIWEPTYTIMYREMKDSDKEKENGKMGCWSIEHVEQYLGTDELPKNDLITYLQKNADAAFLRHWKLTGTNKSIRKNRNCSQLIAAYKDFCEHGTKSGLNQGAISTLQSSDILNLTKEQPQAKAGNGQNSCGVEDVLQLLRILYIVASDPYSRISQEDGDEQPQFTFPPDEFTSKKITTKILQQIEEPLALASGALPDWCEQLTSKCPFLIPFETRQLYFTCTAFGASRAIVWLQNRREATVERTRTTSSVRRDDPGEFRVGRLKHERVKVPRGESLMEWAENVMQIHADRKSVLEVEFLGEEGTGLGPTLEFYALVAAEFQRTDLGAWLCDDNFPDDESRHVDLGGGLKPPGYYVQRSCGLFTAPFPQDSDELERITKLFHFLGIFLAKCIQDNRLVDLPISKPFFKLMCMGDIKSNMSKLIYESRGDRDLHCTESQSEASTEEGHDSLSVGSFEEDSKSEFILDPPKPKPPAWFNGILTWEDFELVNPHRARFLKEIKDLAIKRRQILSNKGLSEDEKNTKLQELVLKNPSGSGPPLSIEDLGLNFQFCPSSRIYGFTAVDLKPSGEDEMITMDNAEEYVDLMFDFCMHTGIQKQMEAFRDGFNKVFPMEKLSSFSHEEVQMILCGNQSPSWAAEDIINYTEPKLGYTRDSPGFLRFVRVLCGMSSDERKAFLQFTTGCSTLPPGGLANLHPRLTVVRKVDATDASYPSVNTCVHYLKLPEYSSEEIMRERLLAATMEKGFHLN
UniProt Q13561: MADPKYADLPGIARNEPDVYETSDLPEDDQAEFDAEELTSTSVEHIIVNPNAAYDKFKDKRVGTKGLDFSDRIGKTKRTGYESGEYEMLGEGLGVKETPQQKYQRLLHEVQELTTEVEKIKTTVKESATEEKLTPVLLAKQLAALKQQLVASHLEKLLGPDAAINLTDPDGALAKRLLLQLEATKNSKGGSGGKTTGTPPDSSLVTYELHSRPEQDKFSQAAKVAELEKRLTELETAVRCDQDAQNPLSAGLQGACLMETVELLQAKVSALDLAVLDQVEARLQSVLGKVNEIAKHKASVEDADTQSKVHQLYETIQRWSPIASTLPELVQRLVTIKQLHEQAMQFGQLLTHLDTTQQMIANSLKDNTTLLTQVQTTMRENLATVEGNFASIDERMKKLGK
UniProt Q14203: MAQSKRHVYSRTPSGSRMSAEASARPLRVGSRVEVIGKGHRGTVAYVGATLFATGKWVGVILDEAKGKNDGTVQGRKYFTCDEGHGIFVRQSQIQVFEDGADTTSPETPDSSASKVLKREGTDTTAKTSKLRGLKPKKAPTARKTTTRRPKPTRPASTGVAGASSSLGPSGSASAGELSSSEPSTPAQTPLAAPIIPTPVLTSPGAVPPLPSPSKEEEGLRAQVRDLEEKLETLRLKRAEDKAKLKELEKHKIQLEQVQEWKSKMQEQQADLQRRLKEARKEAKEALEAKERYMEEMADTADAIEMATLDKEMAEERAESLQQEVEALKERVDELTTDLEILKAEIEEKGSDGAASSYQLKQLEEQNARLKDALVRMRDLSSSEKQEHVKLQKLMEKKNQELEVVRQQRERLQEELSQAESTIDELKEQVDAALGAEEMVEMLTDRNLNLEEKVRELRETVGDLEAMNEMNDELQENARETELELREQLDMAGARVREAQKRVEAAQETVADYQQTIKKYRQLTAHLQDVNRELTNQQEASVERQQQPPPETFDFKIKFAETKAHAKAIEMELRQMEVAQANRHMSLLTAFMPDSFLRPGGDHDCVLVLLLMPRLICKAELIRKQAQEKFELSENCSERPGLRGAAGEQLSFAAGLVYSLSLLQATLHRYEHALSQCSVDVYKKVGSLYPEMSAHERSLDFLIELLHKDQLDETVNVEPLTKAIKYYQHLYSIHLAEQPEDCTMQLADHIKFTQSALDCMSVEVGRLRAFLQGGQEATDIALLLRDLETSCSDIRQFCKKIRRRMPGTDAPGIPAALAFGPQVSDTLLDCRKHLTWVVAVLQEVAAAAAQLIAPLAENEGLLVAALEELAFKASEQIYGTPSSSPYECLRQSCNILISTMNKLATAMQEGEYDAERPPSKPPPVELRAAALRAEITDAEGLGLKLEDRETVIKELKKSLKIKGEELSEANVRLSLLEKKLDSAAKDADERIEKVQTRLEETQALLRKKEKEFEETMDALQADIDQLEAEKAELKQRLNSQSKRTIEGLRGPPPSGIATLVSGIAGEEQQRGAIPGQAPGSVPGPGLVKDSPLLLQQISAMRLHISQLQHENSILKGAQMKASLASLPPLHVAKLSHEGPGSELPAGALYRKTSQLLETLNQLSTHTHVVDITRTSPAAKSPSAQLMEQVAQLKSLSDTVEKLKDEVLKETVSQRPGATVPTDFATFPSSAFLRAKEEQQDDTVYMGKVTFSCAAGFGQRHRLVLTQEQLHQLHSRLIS
UniProt P61163: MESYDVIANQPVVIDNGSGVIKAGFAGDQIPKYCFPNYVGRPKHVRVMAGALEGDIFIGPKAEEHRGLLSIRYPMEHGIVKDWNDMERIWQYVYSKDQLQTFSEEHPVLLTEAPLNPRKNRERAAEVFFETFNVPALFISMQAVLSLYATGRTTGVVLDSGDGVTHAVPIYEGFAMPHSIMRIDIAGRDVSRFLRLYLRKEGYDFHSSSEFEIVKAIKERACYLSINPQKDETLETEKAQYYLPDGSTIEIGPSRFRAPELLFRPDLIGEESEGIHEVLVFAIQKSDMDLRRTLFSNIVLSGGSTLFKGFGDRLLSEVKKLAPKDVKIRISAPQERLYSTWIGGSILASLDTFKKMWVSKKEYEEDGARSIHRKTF

How the values were obtained:
[1] = target: T1, RNF181 (human (endogenous in H9 hESCs)) (UniProt Q9P0P0); test: affinity purification with mass spectrometry; co-immunoprecipitation of endogenous HECTD1 or RNF181 from neurons differentiated from H9 hESCs, label-free MS, FDR < 0.2
T1 sequence: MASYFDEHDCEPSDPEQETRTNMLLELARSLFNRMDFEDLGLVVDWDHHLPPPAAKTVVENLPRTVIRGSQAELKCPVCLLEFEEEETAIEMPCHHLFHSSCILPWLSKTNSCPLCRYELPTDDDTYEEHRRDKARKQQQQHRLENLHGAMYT

[2] = target: T1, RNF181 (human (endogenous in H9 hESCs)); test: affinity purification with mass spectrometry; endogenous E3 (HERC2, HECTD1, RNF181, KCMF1 or UBR7) immunoprecipitated with its antibody (4 µg, 30 minutes on ice) from 330 µg H9 hESC RIPA lysate (50 mM Tris-HCl pH 6.7, 150 mM NaCl, 1% Triton x-100, 1% sodium deoxycholate, 1 mM EDTA), µMACS Micro Beads; control co-IP with anti-FLAG antibody; label-free LC-MS/MS, FDR < 0.2; no RNase
[3] = target: UBE3A (human (endogenous in H9 hESCs)) (UniProt Q05086); test: affinity purification with mass spectrometry; endogenous UBE3A immunoprecipitated overnight at 4 °C from precleared H9 hESC RIPA lysate (50 mM Tris-HCl pH 7.4, 150 mM NaCl, 1% Triton x-100, 1% sodium deoxycholate, 0.1% SDS, 1 mM EDTA), Protein A beads; control with anti-FLAG antibody; label-free LC-MS/MS, FDR < 0.2
[4] = target: HERC2 (human (endogenous in H9 hESCs)), O95714; test: affinity purification with mass spectrometry; endogenous E3 (HERC2, HECTD1, RNF181, KCMF1 or UBR7) immunoprecipitated with its antibody (4 µg, 30 minutes on ice) from 330 µg H9 hESC RIPA lysate (50 mM Tris-HCl pH 6.7, 150 mM NaCl, 1% Triton x-100, 1% sodium deoxycholate, 1 mM EDTA), µMACS Micro Beads; control co-IP with anti-FLAG antibody; label-free LC-MS/MS, FDR < 0.2; no RNase; conditions: remark: other sources report otherwise
[5] = target: KCMF1 (human (endogenous in H9 hESCs)) (UniProt Q9P0J7); test: as above
[6] = target: HECTD1 (human (endogenous in H9 hESCs)) (UniProt Q9ULT8); test: affinity purification with mass spectrometry; co-immunoprecipitation of endogenous HECTD1 or RNF181 from neurons differentiated from H9 hESCs, label-free MS, FDR < 0.2
[7] = target: HECTD1 (human (endogenous in H9 hESCs)) (UniProt Q9ULT8); test: affinity purification with mass spectrometry; co-immunoprecipitation of endogenous HECTD1 from NPCs differentiated from H9 hESCs (n = 3), label-free MS, FDR < 0.2
[8] = target: HECTD1 (human (endogenous in H9 hESCs)) (UniProt Q9ULT8); test: affinity purification with mass spectrometry; endogenous E3 (HERC2, HECTD1, RNF181, KCMF1 or UBR7) immunoprecipitated with its antibody (4 µg, 30 minutes on ice) from 330 µg H9 hESC RIPA lysate (50 mM Tris-HCl pH 6.7, 150 mM NaCl, 1% Triton x-100, 1% sodium deoxycholate, 1 mM EDTA), µMACS Micro Beads; control co-IP with anti-FLAG antibody; label-free LC-MS/MS, FDR < 0.2; no RNase
[9] = target: T2, UBR7 (human (endogenous in H9 hESCs)) (UniProt Q8N806); test: as above
T2 sequence: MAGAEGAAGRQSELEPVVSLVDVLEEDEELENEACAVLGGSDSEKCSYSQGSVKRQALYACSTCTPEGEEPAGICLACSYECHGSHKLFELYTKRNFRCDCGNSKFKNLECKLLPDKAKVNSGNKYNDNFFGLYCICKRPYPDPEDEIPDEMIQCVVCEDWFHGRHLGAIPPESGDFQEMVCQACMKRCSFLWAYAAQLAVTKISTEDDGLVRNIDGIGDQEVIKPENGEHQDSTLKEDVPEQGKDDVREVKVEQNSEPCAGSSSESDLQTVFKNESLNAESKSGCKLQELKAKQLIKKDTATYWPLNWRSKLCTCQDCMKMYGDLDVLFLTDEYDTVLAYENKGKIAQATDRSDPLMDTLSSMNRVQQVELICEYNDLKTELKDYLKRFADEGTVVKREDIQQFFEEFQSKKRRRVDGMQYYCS

Molecule: DCTN2 (from UniProt Q13561 1-401)
binding [1]: binds | binding [2]: binds

Molecule: DCTN1 (from UniProt Q14203 1-1278)
binding [1]: binds | binding [2]: binds

B1: UBE3A, Q05086 1-875 (enzyme)
chain: MEKLHQCYWKSGEPQSDDIEASRMKRAAAKHLIERYYHQLTEGCGNEACTNEFCASCPTFLRMDNNAAAIKALELYKINAKLCDPHPSKKGASSAYLENSKGAPNNSCSEIKMNKKGARIDFKDVTYLTEEKVYEILELCREREDYSPLIRVIGRVFSSAEALVQSFRKVKQHTKEELKSLQAKDEDKDEDEKEKAACSAAAMEEDSEASSSRIGDSSQGDNNLQKLGPDDVSVDIDAIRRVYTRLLSNEKIETAFLNALVYLSPNVECDLTYHNVYSRDPNYLNLFIIVMENRNLHSPEYLEMALPLFCKAMSKLPLAAQGKLIRLWSKYNADQIRRMMETFQQLITYKVISNEFNSRNLVNDDDAIVAASKCLKMVYYANVVGGEVDTNHNEEDDEEPIPESSELTLQELLGEERRNKKGPRVDPLETELGVKTLDCRKPLIPFEEFINEPLNEVLEMDKDYTFFKVETENKFSFMTCPFILNAVTKNLGLYYDNRIRMYSERRITVLYSLVQGQQLNPYLRLKVRRDHIIDDALVRLEMIAMENPADLKKQLYVEFEGEQGVDEGGVSKEFFQLVVEEIFNPDIGMFTYDESTKLFWFNPSSFETEGQFTLIGIVLGLAIYNNCILDVHFPMVVYRKLMGKKGTFRDLGDSHPVLYQSLKDLLEYEGNVEDDMMITFQISQTDLFGNPMMYDLKENGDKIPITNENRKEFVNLYSDYILNKSVEKQFKAFRRGFHMVTNESPLKYLFRPEEIELLICGSRNLDFQALEETTEYDGGYTRDSVLIREFWEIVHSFTDEQKRLFLQFTTGTDRAPVGGLGKLKMIIAKNGPDTERLPTSHTCFNVLLLPEYSSKEKLKERLLKAITYAKGFGML
binding [4]: no binding

B4: SAE1 (protein, UniProt Q9UBE0 1-346)
chain: MVEKEEAGGGISEEEAAQYDRQIRLWGLEAQKRLRASRVLLVGLKGLGAEIAKNLILAGVKGLTMLDHEQVTPEDPGAQFLIRTGSVGRNRAEASLERAQNLNPMVDVKVDTEDIEKKPESFFTQFDAVCLTCCSRDVIVKVDQICHKNSIKFFTGDVFGYHGYTFANLGEHEFVEEKTKVAKVSQGVEDGPDTKRAKLDSSETTMVKKKVVFCPVKEALEVDWSSEKAKAALKRTTSDYFLLQVLLKFRTDKGRDPSSDTYEEDSELLLQIRNDVLDSLGISPDLLPEDFVRYCFSEMAPVCAVVGGILAQEIVKALSQRDPPHNNFFFFDGMKGNGIVECLGPK
binding [3]: binds

Second part, the molecule after the results:

binding [1]: binds | binding [2]: binds
Molecule: ACTR1A (from UniProt P61163 1-376)

binding [3]: binds
Molecule: AHNAK (from UniProt Q09666 1-5890)

binding [5]: binds
B2: HMMR (protein, UniProt O75330 1-724)
chain: MSFPKAPLKRFNDPSGCAPSPGAYDVKTLEVLKGPVSFQKSQRFKQQKESKQNLNVDKDTTLPASARKVKSSESKESQKNDKDLKILEKEIRVLLQERGAQDRRIQDLETELEKMEARLNAALREKTSLSANNATLEKQLIELTRTNELLKSKFSENGNQKNLRILSLELMKLRNKRETKMRGMMAKQEGMEMKLQVTQRSLEESQGKIAQLEGKLVSIEKEKIDEKSETEKLLEYIEEISCASDQVEKYKLDIAQLEENLKEKNDEILSLKQSLEENIVILSKQVEDLNVKCQLLEKEKEDHVNRNREHNENLNAEMQNLKQKFILEQQEREKLQQKELQIDSLLQQEKELSSSLHQKLCSFQEEMVKEKNLFEEELKQTLDELDKLQQKEEQAERLVKQLEEEAKSRAEELKLLEEKLKGKEAELEKSSAAHTQATLLLQEKYDSMVQSLEDVTAQFESYKALTASEIEDLKLENSSLQEKAAKAGKNAEDVQHQILATESSNQEYVRMLLDLQTKSALKETEIKEITVSFLQKITDLQNQLKQQEEDFRKQLEDEEGRKAEKENTTAELTEEINKWRLLYEELYNKTKPFQLQLDAFEVEKQALLNEHGAAQEQLNKIRDSYAKLLGHQNLKQKIKHVVKLKDENSQLKSEVSKLRCQLAKKKQSETKLQEELNKVLGIKHFDPSKAFHHESKENFALKTPLKEGNTNCYRAPMECQESWK

binding [6]: binds | binding [7]: binds | binding [8]: binds | binding [9]: binds
B3: PDHB (protein, UniProt P11177 31-359)
chain: LQVTVRDAINQGMDEELERDEKVFLLGEEVAQYDGAYKVSRGLWKKYGDKRIIDTPISEMGFAGIAVGAAMAGLRPICEFMTFNFSMQAIDQVINSAAKTYYMSGGLQPVPIVFRGPNGASAGVAAQHSQCFAAWYGHCPGLKVVSPWNSEDAKGLIKSAIRDNNPVVVLENELMYGVPFEFPPEAQSKDFLIPIGKAKIERQGTHITVVSHSRPVGHCLEAAAVLSKEGVECEVINMRTIRPMDMETIEASVMKTNHLVTVEGGWPQFGVGAEICARIMEGPAFNFLDAPAVRVTGADVPMPYAKILEDNSIPQVKDIIFAIKKTLNI
